# According to PubChem BioAssay AID445 (National Center for Advancing Translational Sciences (NCATS), 2006):
# The list shows a part of the results. Further columns of the screen follow, without active or inactive calls. Most of these compounds were active or inconclusive in the main read-out, so they are no random draw. Potencies come from curve fits of mixed quality, noted in brackets.
# Assay: IkB Signaling
# Conditions: ABC-DLBCL IkBa-CBG/CBR dual luciferase ratio (green luciferase fused to IkBa over red control in OCI-Ly3 lymphoma cells), 4 h
# How it was run: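 Luminescence ratio of IκBα-fused green versus native red beetle luciferase in OCI-Ly3 cells, 4 h post-doxycycline with compound; red signal alone, scaled from basal (0%) to zero light (-100%), flagged nonspecific or cytotoxic effects.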
# [1] = measured here: control luc red channel unless noted
# [2] = measured here: IkB-luc green channel
# [3] = measured here: control luc red channel
compound,measurement,setting,value
COc1ccc(N(Cc2cc(=O)[nH]c3ccccc23)C(=O)c2ccco2)cc1,AC50,[1],"12.6 µM [falling, partial curve]"
CCCc1[nH]nc2c1C(c1ccccc1OC)C(C#N)=C(N)O2 (centres undefined),AC50,[2],"31.6 µM [rising, single point]"
same,AC50,[3],"25.1 µM [falling, partial curve]"
CC(Sc1nnnn1-c1ccccc1)C(=O)Nc1ccc(Cl)cn1 (centres undefined),AC50,[1],"15.8 µM [falling, partial curve]"
COc1cccc(N2C(=O)C(CC(=O)Nc3ccccc3)N(CCc3sccc3C)C2=O)c1 (centres undefined),AC50,[1],"39.8 µM [falling, single point]"
CCc1ccccc1NC(=O)CN1C(=O)C2CCCN2c2ccc(S(=O)(=O)N(CC)CC)cc21 (centres undefined),AC50,[1],"25.1 µM [falling, partial curve]"
Cc1cccc(C)c1NC(=O)Cn1cc(C(=O)c2ccco2)c2ccccc21,AC50,[1],"39.8 µM [falling, single point]"
CCc1nc(Nc2ccc(F)c(Cl)c2)c2c3c(sc2n1)CCCC3,AC50,[1],"25.1 µM [falling, partial curve]"
CC(NC(=O)c1ccco1)C(c1cccs1)N1CCN(c2ccc(F)cc2)CC1 (centres undefined),AC50,[1],"15.8 µM [falling, partial curve]"
Cc1ccc2oc(-c3ccc(Cl)cc3)c(O)c(=O)c2c1,AC50,[2],"3.98 µM [rising, full curve]"
same,AC50,[3],"3.98 µM [rising, full curve]"
Cc1cc(C)n(-c2ccc(C(=O)Nc3ccc(S(=O)(=O)NCc4ccco4)cc3)cc2)n1,AC50,[1],"15.8 µM [falling, partial curve]"
Cc1cc(O)c(C(c2ccccc2)N2CCN(c3ccccc3)CC2)c(=O)n1Cc1ccco1 (centres undefined),AC50,[1],"39.8 µM [falling, single point]"
CCCN(C(=O)Cc1nc(-c2ccc(OC)cc2)no1)c1ccccc1C,AC50,[1],"20 µM [falling, partial curve]"
CCc1cccc(C)c1NC(=O)CCCn1c(C)c2cnn(-c3ccccc3)c(=O)c2c1C,AC50,[1],"0.794 µM [falling, full curve]"
CCOC(=O)c1[nH]c(C)c(CCC(=O)Nc2ccccc2OCC)c1C,AC50,[1],"20 µM [falling, partial curve, poor fit]"
Cn1c(=O)c2c(nc(NCCCCO)n2Cc2ccccc2Cl)n(C)c1=O,AC50,[1],"5.01 µM [rising, single point]"
COc1ccc(C(=O)Nc2nnc(SCc3cc(=O)c4cccc(F)c4[nH]3)s2)cc1,AC50,[1],"31.6 µM [falling, single point]"
Cc1ccc2c(=O)cc(C(=O)Nc3ccc(S(=O)(=O)N4CCCCC4C)cc3)oc2c1C (centres undefined),AC50,[1],"31.6 µM [falling, single point]"
O=C(CSc1nc2ccccc2s1)NC(=O)NCc1ccco1,AC50,[1],"12.6 µM [falling, partial curve]"
CCN(CC)c1ccc(NS(=O)(=O)c2cc(-c3onc(C)c3C)ccc2OC)c(C)c1,AC50,[1],"25.1 µM [falling, partial curve]"
COc1cccc(-c2nnc(SCC(=O)N(C)c3ccccc3)o2)c1,AC50,[1],"0.794 µM [falling, partial curve]"
CCn1c2ccccc2c2cc(CN3CCN(Cc4ccc(Cl)cc4)CC3)ccc21,AC50,[1],"20 µM [falling, partial curve]"
CCOC(=O)c1ccc(NC(=O)CC2C(=O)N(c3cccc(OC)c3)C(=O)N2Cc2cccnc2)cc1 (centres undefined),AC50,[1],"20 µM [falling, partial curve, poor fit]"
COc1cccc(C2CC(=O)Nc3cc(OC)c(OC)c(OC)c32)c1OC(C)C (centres undefined),AC50,[1],"3.98 µM [rising, partial curve]"
COc1cc(CNC(=O)c2sc3ncccc3c2-n2cccc2)cc(OC)c1OC,AC50,[1],"15.8 µM [falling, partial curve]"
COc1ccc(NC(=O)CN2C(=O)C(C)(C)c3ccccc32)cc1Cl,AC50,[1],"39.8 µM [falling, single point]"
CSc1ccc(CCNC(=O)C2=C(C)C(=O)OC23CCCCC3)cc1,AC50,[1],"3.98 µM [falling, partial curve]"
COCCSc1nc2sc3c(c2c(=O)n1-c1ccccc1)CCN(C)C3,AC50,[1],"10 µM [falling, partial curve]"
Cc1cc(C(=O)CSc2nnc(N)s2)c(C)n1CCc1ccc(Cl)cc1,AC50,[1],"6.31 µM [falling, full curve]"
N#Cc1nc(-c2ccc(COc3ccccc3)o2)oc1NCc1cccnc1,AC50,[1],"39.8 µM [falling, single point]"
COC(=O)c1ccc(OCC2c3cc(OC)c(OC)cc3CCN2C(=O)c2ccccc2C)cc1 (centres undefined),AC50,[1],"39.8 µM [falling, single point]"
Cc1nc(N2CCCC2)c2c(C(=O)N3CCN(c4ccc(F)cc4)CC3)c(C)oc2n1,AC50,[1],"5.01 µM [falling, single point]"
Cc1ccc(-c2nnc(Nc3ccc(Br)cc3)c3ccccc23)cc1S(=O)(=O)NCC1CCCO1 (centres undefined),AC50,[1],"3.98 µM [falling, full curve]"
CCc1cccc(CC)c1NC(=O)c1c(C)oc2ccc(O)c(CN3CCN(C)CC3)c12,AC50,[1],"31.6 µM [falling, single point]"
Cc1cccc(N2CCN(C(=O)Cn3ncc4c3-c3cc(C)ccc3OC4)CC2C)c1 (centres undefined),AC50,[1],"25.1 µM [falling, partial curve]"
Cc1nc2cc(C(=O)NCCC3=CCCCC3)ccc2n1-c1ccc(Br)cc1,AC50,[1],"2.51 µM [rising, single point]"
Cc1cc(C)c(NC(=O)CCN2C(=O)c3ccccc3Sc3ncccc32)c(C)c1,AC50,[1],"3.98 µM [rising, partial curve]"
CSc1nc(Nc2ccc(C)cc2C)cc(-c2ccccc2)n1,AC50,[1],"12.6 µM [falling, partial curve]"
CN(Cc1ccccc1)C(=O)C1CCN(S(=O)(=O)c2ccc3c(c2)oc(=O)n3C)CC1,AC50,[1],"39.8 µM [falling, single point]"
COc1ccc(-c2cc(-c3ccccc3O)[nH]n2)cc1OC,AC50,[1],"7.94 µM [falling, full curve]"
CCCCCNC(=O)c1ccc2c(c1)ncn2-c1cccc(C)c1,AC50,[1],"20 µM [falling, single point]"
Cc1cccc(C(=O)Nc2nnc(S(=O)(=O)N(C)Cc3ccc(Cl)cc3)s2)c1,AC50,[1],"2 µM [falling, partial curve]"
Cc1ccc(C(=O)NCC(c2ccc3c(c2)OCO3)N2CCN(c3ccc(F)cc3)CC2)cc1 (centres undefined),AC50,[1],"31.6 µM [falling, partial curve]"
Cc1ccccc1C(=O)Nc1ccccc1OCc1cc(=O)n2ccccc2n1,AC50,[1],"15.8 µM [falling, partial curve]"
Cc1ccc2nc(NC(=O)CCNS(=O)(=O)c3cccs3)sc2c1,AC50,[1],"10 µM [falling, partial curve]"
COc1ccccc1N1CCN(C(=O)c2sc3nc(-c4ccccc4)cn3c2C)CC1,AC50,[1],"10 µM [falling, partial curve]"
CCN(CC)c1nc2c(S(=O)(=O)c3ccccc3)nnn2c2ccc(Cl)cc12,AC50,[1],"0.316 µM [falling, full curve]"
Cc1cccc(-c2nc(S(=O)(=O)c3ccc(Cl)cc3)c(N3CCCCCC3)o2)c1,AC50,[1],"12.6 µM [falling, partial curve]"
COc1cccc(-c2nc(SCC(=O)NCC3CCCO3)c(-c3ccc(C)cc3)[nH]2)c1 (centres undefined),AC50,[1],"12.6 µM [falling, partial curve]"
CCOc1ccc(NC(=O)c2cc3c(C)nn(-c4ccccc4)c3s2)cc1,AC50,[1],"12.6 µM [falling, partial curve]"
COc1ccc(NC(=O)c2ccc3c(=O)n4nc(Nc5ccccc5C)sc4nc3c2)cc1Cl,AC50,[1],"25.1 µM [falling, single point]"
Cc1cccc(Cn2cc(/C=C(/C#N)C(=O)Nc3cccc(Cl)c3)c3ccccc32)c1,AC50,[1],"0.631 µM [falling, full curve]"
CCN(C(=O)c1cc2c(=O)oc3ccccc3c2s1)c1ccc(C)c(C)c1,AC50,[1],"10 µM [falling, partial curve]"
O=C(Cn1nc(-c2ccccc2)nc(Cc2ccccc2)c1=O)Nc1ccc(Cl)cc1,AC50,[1],"5.01 µM [falling, single point]"
Cc1oc(-c2ccc(C(=O)NCCN(C)C)cc2)nc1CS(=O)(=O)c1ccccc1,AC50,[1],"1.26 µM [falling, full curve, poor fit]"
COc1ccc(Br)cc1C(=O)Nc1ccc(-c2nc3ncccc3o2)cc1C,AC50,[1],"15.8 µM [rising, partial curve]"
CCc1ccc(NC(=O)CSc2ccc3nc(-c4ccc(OC)cc4)cn3n2)cc1,AC50,[1],"10 µM [falling, partial curve]"
COc1ccc(NC(=O)c2ccc(-c3ccc(-c4noc(C)n4)cc3C)cc2)cc1N1CCN(C)CC1,AC50,[1],"39.8 µM [falling, single point]"
CC(=O)NC1Sc2ccccc2N=C1c1ccccc1 (centres undefined),AC50,[1],"2.51 µM [rising, partial curve]"
CCC(=O)N1CCc2cc(Br)cc(S(=O)(=O)N3CCC(C(=O)Nc4ccccc4F)CC3)c21,AC50,[1],"25.1 µM [falling, partial curve]"
Cc1cc(N2CCN(C(=O)c3ccco3)CC2)nc(-c2ccccc2)n1,AC50,[1],"12.6 µM [falling, partial curve]"
O=C(Nc1ccc(Cl)cc1Cl)c1cc(S(=O)(=O)N2CCCCCC2)ccc1F,AC50,[1],"10 µM [falling, partial curve, poor fit]"
Cc1cc(C)cc(C(=O)n2nc(C)c(S(=O)(=O)N3CCCCCC3)c2C)c1,AC50,[1],"15.8 µM [falling, partial curve]"

# As a working copy, part of the list above.
compound,measurement,setting,value
CCn1c2ccccc2c2cc(CN3CCN(Cc4ccc(Cl)cc4)CC3)ccc21,AC50,[1],"20 µM [falling, partial curve]"
CCOC(=O)c1ccc(NC(=O)CC2C(=O)N(c3cccc(OC)c3)C(=O)N2Cc2cccnc2)cc1 (centres undefined),AC50,[1],"20 µM [falling, partial curve, poor fit]"
COc1cccc(C2CC(=O)Nc3cc(OC)c(OC)c(OC)c32)c1OC(C)C (centres undefined),AC50,[1],"3.98 µM [rising, partial curve]"
COc1cc(CNC(=O)c2sc3ncccc3c2-n2cccc2)cc(OC)c1OC,AC50,[1],"15.8 µM [falling, partial curve]"
COc1ccc(NC(=O)CN2C(=O)C(C)(C)c3ccccc32)cc1Cl,AC50,[1],"39.8 µM [falling, single point]"
CSc1ccc(CCNC(=O)C2=C(C)C(=O)OC23CCCCC3)cc1,AC50,[1],"3.98 µM [falling, partial curve]"
COCCSc1nc2sc3c(c2c(=O)n1-c1ccccc1)CCN(C)C3,AC50,[1],"10 µM [falling, partial curve]"
Cc1cc(C(=O)CSc2nnc(N)s2)c(C)n1CCc1ccc(Cl)cc1,AC50,[1],"6.31 µM [falling, full curve]"
N#Cc1nc(-c2ccc(COc3ccccc3)o2)oc1NCc1cccnc1,AC50,[1],"39.8 µM [falling, single point]"
COC(=O)c1ccc(OCC2c3cc(OC)c(OC)cc3CCN2C(=O)c2ccccc2C)cc1 (centres undefined),AC50,[1],"39.8 µM [falling, single point]"
Cc1nc(N2CCCC2)c2c(C(=O)N3CCN(c4ccc(F)cc4)CC3)c(C)oc2n1,AC50,[1],"5.01 µM [falling, single point]"
Cc1ccc(-c2nnc(Nc3ccc(Br)cc3)c3ccccc23)cc1S(=O)(=O)NCC1CCCO1 (centres undefined),AC50,[1],"3.98 µM [falling, full curve]"
CCc1cccc(CC)c1NC(=O)c1c(C)oc2ccc(O)c(CN3CCN(C)CC3)c12,AC50,[1],"31.6 µM [falling, single point]"
Cc1cccc(N2CCN(C(=O)Cn3ncc4c3-c3cc(C)ccc3OC4)CC2C)c1 (centres undefined),AC50,[1],"25.1 µM [falling, partial curve]"
Cc1nc2cc(C(=O)NCCC3=CCCCC3)ccc2n1-c1ccc(Br)cc1,AC50,[1],"2.51 µM [rising, single point]"
Cc1cc(C)c(NC(=O)CCN2C(=O)c3ccccc3Sc3ncccc32)c(C)c1,AC50,[1],"3.98 µM [rising, partial curve]"
